Patent EP1161262B1 (University of Maryland, Baltimore, dated 2008)
No constants are given. Whether binding was seen depends on the method and setting. In cells and extracts the contact can be indirect. Some binding calls cover weakened binding; strength is not graded here. Each block holds one binder with its values, some of them ahead of it.

By UniProt entry, the sequences of proteins in these tests, tags left out. Residues count along the entry.
UniProt P21926, residues 2-228: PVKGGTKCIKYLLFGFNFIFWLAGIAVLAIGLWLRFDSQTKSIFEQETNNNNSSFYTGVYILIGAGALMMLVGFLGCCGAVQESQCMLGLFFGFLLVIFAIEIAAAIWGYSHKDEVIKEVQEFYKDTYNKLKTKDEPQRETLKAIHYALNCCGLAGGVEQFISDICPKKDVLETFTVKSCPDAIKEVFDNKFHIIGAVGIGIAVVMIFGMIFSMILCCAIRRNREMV

Key:
[1] = target: tetraspanin protein CD9 of human SCC cells (human) (UniProt P21926); assay: DSP or DTSSP cross-linking of surface-labelled cells, co-immunoprecipitation
[2] = target: T1, tetraspanin protein CD9 of murine LL/2 cells (murine) (UniProt P40240); assay: as above
T1 sequence (looked up): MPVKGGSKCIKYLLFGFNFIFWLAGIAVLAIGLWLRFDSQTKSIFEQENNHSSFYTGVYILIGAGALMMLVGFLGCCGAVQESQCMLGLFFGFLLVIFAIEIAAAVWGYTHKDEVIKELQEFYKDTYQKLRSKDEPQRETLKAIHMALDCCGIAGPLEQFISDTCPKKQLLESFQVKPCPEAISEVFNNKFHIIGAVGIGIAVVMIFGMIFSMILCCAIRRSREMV

binding [1]: binds
B1: colligin/Hsp47 on the surface of human carcinoma cells (protein, UniProt P50454 19-418, looked up)
chain: AEVKKPAAAAAPGTAEKLSPKAATLAERSAGLAFSLYQAMAKDQAVENILVSPVVVASSLGLVSLGGKATTASQAKAVLSAEQLRDEEVHAGLGELLRSLSNSTARNVTWKLGSRLYGPSSVSFADDFVRSSKQHYNCEHSKINFRDKRSALQSINEWAAQTTDGKLPEVTKDVERTDGALLVNAMFFKPHWDEKFHHKMVDNRGFMVTRSYTVGVMMMHRTGLYNYYDDEKEKLQIVEMPLAHKLSSLIILMPHHVEPLERLEKLLTKEQLKIWMGKMQKKAVAISLPKGVVEVTHDLQKHLAGLGLTEAIDKNKADLSRMSGKKDLYLASVFHATAFELDTDGNPFDQDIYGREELRSPKLFYADHPFIFLVRDTQSGSLLFIGRLVRPKGDKMRDEL

binding [2]: binds
B2: colligin/Hsp47 of the murine Lewis Lung Carcinoma (LL/2) cell line (protein, UniProt P19324 18-417, looked up)
chain: AEVKKPLEAAAPGTAEKLSSKATTLAERSTGLAFSLYQAMAKDQAVENILLSPLVVASSLGLVSLGGKATTASQAKAVLSAEKLRDEEVHTGLGELLRSLSNSTARNVTWKLGSRLYGPSSVSFADDFVRSSKQHYNCEHSKINFRDKRSALQSINEWASQTTDGKLPEVTKDVERTDGALLVNAMFFKPHWDEKFHHKMVDNRGFMVTRSYTVGVTMMHRTGLYNYYDDEKEKLQMVEMPLAHKLSSLIILMPHHVEPLERLEKLLTKEQLKAWMGKMQKKAVAISLPKGVVEVTHDLQKHLAGLGLTEAIDKNKADLSRMSGKKDLYLASVFHATAFEWDTEGNPFDQDIYGREELRSPKLFYADHPFIFLVRDNQSGSLLFIGRLVRPKGDKMRDEL
